Source: patent US20220186232A1
These are yes or no findings as the source states them, for the method shown. Some results given as binding are weak or reduced against the parent protein; the word gives no strength.

Molecular target: T1, mouse IL-10 receptor (IL-10R) on mouse CD4 T cells (mouse) (UniProt Q61727)
T1 sequence (looked up): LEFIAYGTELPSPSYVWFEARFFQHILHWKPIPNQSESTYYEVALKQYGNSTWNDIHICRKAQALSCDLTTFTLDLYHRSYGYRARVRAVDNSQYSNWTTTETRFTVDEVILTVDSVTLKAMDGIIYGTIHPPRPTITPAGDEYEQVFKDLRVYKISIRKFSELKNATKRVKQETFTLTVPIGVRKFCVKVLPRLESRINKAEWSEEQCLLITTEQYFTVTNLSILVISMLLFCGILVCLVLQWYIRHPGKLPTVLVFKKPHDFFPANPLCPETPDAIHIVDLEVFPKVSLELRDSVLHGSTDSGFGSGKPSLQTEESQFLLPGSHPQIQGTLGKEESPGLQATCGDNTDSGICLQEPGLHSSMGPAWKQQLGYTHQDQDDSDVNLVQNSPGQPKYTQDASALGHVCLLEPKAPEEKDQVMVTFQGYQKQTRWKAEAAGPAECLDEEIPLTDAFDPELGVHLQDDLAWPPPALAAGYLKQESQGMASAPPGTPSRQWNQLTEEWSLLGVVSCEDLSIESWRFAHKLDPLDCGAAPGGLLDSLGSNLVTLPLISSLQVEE
Assay: flow cytometry, mouse CD4 T cells transfected with mouse memIL-10 mRNA; binding inferred from blocked antibody staining

binding: binds
Substance: mouse membrane-anchored homodimeric IL-10 (mouse memIL-10), short linker (from UniProt P18893 19-178; P18893 19-178) (ligand)
